According to PubChem BioAssay AID2006 (Sanford-Burnham Center for Chemical Genomics, 2009):
The list shows a part of the results.

Amino acid sequences for entries named in this document (tags omitted).
UniProt P63279, whole entry: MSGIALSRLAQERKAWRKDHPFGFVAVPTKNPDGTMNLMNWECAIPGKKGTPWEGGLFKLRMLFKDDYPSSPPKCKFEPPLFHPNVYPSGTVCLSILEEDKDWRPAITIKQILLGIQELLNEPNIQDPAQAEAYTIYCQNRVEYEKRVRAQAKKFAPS

Molecular target: SUMO-conjugating enzyme UBC9 (Homo sapiens) (UniProt P63279)
Test: inhibitors of in vitro SUMOylation cascade, primary screen, biochemical, HTRF, uHTS (AID 2006)
Details: HTRF SUMOylation assay, SAE1/SAE2 + UBC9, in vitro; average of repeat tests; at 35 µM; stronger effect = higher value

| Compound | inhibition |
| --- | --- |
| Nc1cccc2ccc([As](=O)(O)O)cc12 | 53.8% |
| Nc1cccc2c([As](=O)(O)O)cccc12 | 39.9% |
